The experiment concerns L1210 leukemia ip in BDF1 mice, survival T/C. Kind of experiment: NCI In Vivo Anticancer Drug Screen. Data for tumor model L1210 Leukemia (intraperitoneal) in B6D2F1 (BDF1) mice. Conditions: T/C endpoint: mean survival time, higher T/C = longer survival.
[1] abbreviates: dose: 512.0 mg/kg/injection, schedule: Q01DX001 (ip), vehicle: saline.
The mark [2] stands for this setting: dose: 100.0 mg/kg/injection, schedule: Q01DX009 (ip), vehicle: saline with Tween-80.
[3] abbreviates: dose: 400.0 mg/kg/injection, schedule: Q04DX002 (ip), vehicle: saline with Tween-80.
Where [4] appears, read: dose: 200.0 mg/kg/injection, schedule: Q01DX009 (ip), vehicle: Klucel (hydroxypropylcellulose) (HPC).

17 compounds from PubChem BioAssay AID248 (DTP/NCI, 2004) can be followed below.

The list is a part of this screen's results and no random one: it is rich in T/C values a quarter to a half above the control, in often repeated tests (any T/C) and in doses without a T/C. Further doses and runs are listed elsewhere. T/C is the treated group as % of the vehicle group. Some doses have a count of surviving animals in place of a T/C: the source files T/C as zero there, which appears to mark a toxic dose or a test without result, not a measured value. Some survivor counts are full or nearly so, which does not show that the dose was tolerated: the source hardly ever lists a survival T/C far under the control, and the zero likely stands for such cases as well. Counts of survivors are from the toxicity check (mostly the fifth day) where no day follows; animals may have died later. Schedule codes are those of the source, read here as Q, the interval in days (D) or hours (H), X, the number of doses. Some entries hold several experiments; the values are given in rising order. Some schedules carry Z or #; the key to these is not given. Where survival is the endpoint, this PubChem deposit counts one and a half times the control or more as active, and values a quarter to a half above the control carry no call in these data; other NCI protocols may use other cut-offs. Additions like (4×) count equal records among those shown. Some T/C values are followed by the survivors on the day toxicity was checked, most often the fifth; where none is given, no animal had died by that day.

In the case of `O=C(NP(=O)(N1CC1)N1CC1)c1cc(I)ccc1I`, the T/C by setting is: (dose: 1.0 mg/kg/injection, schedule: Q01DX009 (ip), vehicle: saline) 137 % of control; (dose: 2.0 mg/kg/injection, schedule: Q04DX003 (ip), vehicle: saline with Tween-80) 125 % of control; (dose: 4.0 mg/kg/injection, schedule: Q04DX003 (ip), vehicle: saline) 127 % of control; (dose: 8.0 mg/kg/injection, schedule: Q04DX003 (ip), vehicle: saline) 137 % of control; (dose: 16.0 mg/kg/injection, schedule: Q01DX009 (ip), vehicle: saline with Tween-80) 133 % of control; (dose: 16.0 mg/kg/injection, schedule: Q04DX003 (ip), vehicle: saline with Tween-80) 125 % of control. Moreover, the T/C by setting is: (dose: 16.0 mg/kg/injection, schedule: Q04DX003 (ip), vehicle: saline) 133 % of control; (dose: 32.0 mg/kg/injection, schedule: Q01DX009 (ip), vehicle: saline) 135 % of control; (dose: 32.0 mg/kg/injection, schedule: Q04DX003 (ip), vehicle: saline with Tween-80) 147 % of control [9 of 10 alive]; (dose: 64.0 mg/kg/injection, schedule: Q01DX009 (ip), vehicle: saline) 143 % of control; (dose: 64.0 mg/kg/injection, schedule: Q04DX003 (ip), vehicle: saline with Tween-80) 141 % of control; (dose: 64.0 mg/kg/injection, schedule: Q04DX003 (ip), vehicle: saline, evaluated on day 30) 142 % of control. The T/C was 126 % of control (dose: 64.0 mg/kg/injection, schedule: Q04DX003 (ip), vehicle: saline, evaluated on day 60); 131 % of control (dose: 128.0 mg/kg/injection, schedule: Q01DX001 (ip), vehicle: saline); 127 % of control (dose: 128.0 mg/kg/injection, schedule: Q01DX009 (ip), vehicle: saline); 147 % of control [9 of 10 alive] (dose: 256.0 mg/kg/injection, schedule: Q01DX001 (ip), vehicle: saline with Tween-80); 134 % of control (dose: 256.0 mg/kg/injection, schedule: Q01DX001 (ip), vehicle: saline); 127 % of control [7 of 10 alive] (dose: 256.0 mg/kg/injection, schedule: Q01DX001 (oral), vehicle: saline with Tween-80). Moreover, the T/C was 149 % of control under setting [1]; 133 % of control [9 of 10 alive] (dose: 512.0 mg/kg/injection, schedule: Q01DX001 (oral), vehicle: saline with Tween-80); 132 % of control (dose: 512.0 mg/kg/injection, schedule: Q04DX003 (ip), vehicle: saline). In addition, the survivor count is, setting by setting: (dose: 128.0 mg/kg/injection, schedule: Q01DX009 (ip), vehicle: saline with Tween-80) 10 of 10; (dose: 256.0 mg/kg/injection, schedule: Q01DX009 (ip), vehicle: saline with Tween-80) 6 of 10; (dose: 256.0 mg/kg/injection, schedule: Q01DX009 (ip), vehicle: saline) 10 of 10 and 6 of 6; under setting [1], 8 of 10; (dose: 512.0 mg/kg/injection, schedule: Q01DX009 (ip), vehicle: saline with Tween-80) 4 of 10; (dose: 512.0 mg/kg/injection, schedule: Q01DX009 (ip), vehicle: saline) 10 of 10 and 6 of 6. In addition, under “dose: 512.0 mg/kg/injection, schedule: Q04DX003 (ip), vehicle: saline with Tween-80”, the survivor count is given as 9 of 10.
For `CCCCn1cnc2c(=O)[nH]cnc21`, the survivor count (dose: 529.0 mg/kg/injection, schedule: Q01DX Z (ip), vehicle: carboxymethylcellulose (CMC)) is reported as 0 of 6 and the survivor count (dose: 1058.0 mg/kg/injection, schedule: Q01DX Z (oral), vehicle: carboxymethylcellulose (CMC)) is 0 of 6.
Regarding `C=C(C(=O)c1ccccc1)C(NC(C)(C)C)c1ccccc1` (centres undefined), the survivor count is recorded as 1 of 4 (dose: 40.0 mg/kg/injection, schedule: Q01DX001 (ip), vehicle: saline); 0 of 4 (dose: 80.0 mg/kg/injection, schedule: Q01DX001 (ip), vehicle: saline); 0 of 4 (dose: 100.0 mg/kg/injection, schedule: Q01DX001 (ip), vehicle: saline); 1 of 4 (dose: 200.0 mg/kg/injection, schedule: Q01DX001 (ip), vehicle: saline); 2 of 4 (dose: 400.0 mg/kg/injection, schedule: Q01DX001 (ip), vehicle: saline).
With `CC(=O)OC1OC2COC(C)(C)OCC2C(OC(C)=O)C1OC(C)=O` (centres undefined), the survivor count (dose: 400.0 mg/kg/injection, schedule: Q01DX001 (ip), vehicle: saline with Tween-80) was 3 of 3.
For `CCn1cnc2c(SC(C)C)ncnc21`, the T/C (dose: 125.0 mg/kg/injection, schedule: Q01DX Z (ip), vehicle: carboxymethylcellulose (CMC)) is 125 % of control.
As to `O=[N+]([O-])c1ccc(-n2nccn2)cc1`, the survivor count (dose: 300.0 mg/kg/injection, schedule: Q01DX001 (ip), vehicle: other) was 0 of 6.
`O=C(O)c1cc2ccccc2cc1Sc1ccccc1`: under “dose: 400.0 mg/kg/injection, schedule: Q04DX003 (ip), vehicle: saline with Tween-80”, the survivor count is 2 of 6.
`O=C(/C=C/c1ccccc1)NC(=S)Nc1ccc(CCO)cc1`: the T/C is 95, 96, 99 % of control under setting [2] and 93, 95 (2×), 99 % of control (dose: 200.0 mg/kg/injection, schedule: Q01DX009 (ip), vehicle: saline with Tween-80). The survivor count under setting [2] is given as 6 of 6 and the survivor count under setting [3] is listed as 6 of 6.
On to `O=[N+]([O-])c1ccc(C(Cl)S(=O)(=O)c2ccccc2)cc1` (centres undefined), for which the T/C (dose: 400.0 mg/kg/injection, schedule: Q04DX002 (ip), vehicle: Klucel (hydroxypropylcellulose) (HPC)) was 129 and 136 % of control.
In the case of `CCCC(=O)CC(=O)C(F)(F)F.CCCC(=O)CC(=O)C(F)(F)F.CCCC(=O)CC(=O)C(F)(F)F.[Er]`, under “dose: 400.0 mg/kg/injection, schedule: Q01DX009 (ip), vehicle: other”, the survivor count is 3 of 6.
For the compound `O=c1[nH]c2ccccc2c(C(Cl)(Cl)Cl)c1Cl`, the survivor count under setting [4] is reported as 3 of 3.
Same read-out and setting: the figure for `O/N=C\c1ccccc1` is 6 of 6.
As to `O/N=c1\ncn(O)c2nc[nH]c12`, the T/C by setting is: (dose: 130.0 mg/kg/injection, schedule: Q01DX009 (ip), vehicle: saline) 138 % of control; (dose: 200.0 mg/kg/injection, schedule: Q01DX009 (ip), vehicle: saline) 143 % of control [5 of 6 alive].
With `CCCCCCCCCCCCCCCC[N+]1(C)CCOCC1`, the survivor count under setting [4] is 0 of 3.
Take `O=C1C(=O)c2ccccc2C(O)=C1CCCCCCCCCC[S+](CCO)CCO`: the survivor count (dose: 400.0 mg/kg/injection, schedule: Q01DX001 (ip), vehicle: other) was 3 of 6.
As for `CNc1c(C)cc(C)c(NC)c1C`, the survivor count (dose: 200.0 mg/kg/injection, schedule: Q04DX002 (ip), vehicle: saline with Tween-80) was 2 of 3 and the survivor count under setting [3] was 0 of 3.
On to `O=C(Nc1cccc(F)c1)Nc1ccc(Cl)cc1Cl`, for which the survivor count (dose: 400.0 mg/kg/injection, schedule: Q01DX009 (ip), vehicle: Klucel (hydroxypropylcellulose) (HPC)) is recorded as 1 of 6.
